These are yes or no findings as the source states them, for the method shown. In cells and extracts the contact can be indirect. Some results given as binding are weak or reduced against the parent protein; the word gives no strength. Sequences can lack the tags named with a protein.
T1: zinc finger Asp-His-His-Cys-type palmitoyltransferase 15 (ZDHHC15) (human (endogenous in U251 GSCs)) (UniProt Q96MV8)
T1 sequence: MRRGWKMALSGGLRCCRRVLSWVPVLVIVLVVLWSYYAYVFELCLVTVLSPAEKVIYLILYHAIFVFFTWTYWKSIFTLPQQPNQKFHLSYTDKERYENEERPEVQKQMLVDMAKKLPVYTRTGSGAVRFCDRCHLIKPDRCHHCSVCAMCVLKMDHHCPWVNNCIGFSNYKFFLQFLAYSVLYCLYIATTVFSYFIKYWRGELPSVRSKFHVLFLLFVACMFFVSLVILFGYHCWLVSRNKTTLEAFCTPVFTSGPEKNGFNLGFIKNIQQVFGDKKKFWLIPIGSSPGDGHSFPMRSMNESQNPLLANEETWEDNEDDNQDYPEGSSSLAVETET

Amino acid sequences for entries named in this document (tags omitted). Residues count along the entry.
UniProt Q5UIP0: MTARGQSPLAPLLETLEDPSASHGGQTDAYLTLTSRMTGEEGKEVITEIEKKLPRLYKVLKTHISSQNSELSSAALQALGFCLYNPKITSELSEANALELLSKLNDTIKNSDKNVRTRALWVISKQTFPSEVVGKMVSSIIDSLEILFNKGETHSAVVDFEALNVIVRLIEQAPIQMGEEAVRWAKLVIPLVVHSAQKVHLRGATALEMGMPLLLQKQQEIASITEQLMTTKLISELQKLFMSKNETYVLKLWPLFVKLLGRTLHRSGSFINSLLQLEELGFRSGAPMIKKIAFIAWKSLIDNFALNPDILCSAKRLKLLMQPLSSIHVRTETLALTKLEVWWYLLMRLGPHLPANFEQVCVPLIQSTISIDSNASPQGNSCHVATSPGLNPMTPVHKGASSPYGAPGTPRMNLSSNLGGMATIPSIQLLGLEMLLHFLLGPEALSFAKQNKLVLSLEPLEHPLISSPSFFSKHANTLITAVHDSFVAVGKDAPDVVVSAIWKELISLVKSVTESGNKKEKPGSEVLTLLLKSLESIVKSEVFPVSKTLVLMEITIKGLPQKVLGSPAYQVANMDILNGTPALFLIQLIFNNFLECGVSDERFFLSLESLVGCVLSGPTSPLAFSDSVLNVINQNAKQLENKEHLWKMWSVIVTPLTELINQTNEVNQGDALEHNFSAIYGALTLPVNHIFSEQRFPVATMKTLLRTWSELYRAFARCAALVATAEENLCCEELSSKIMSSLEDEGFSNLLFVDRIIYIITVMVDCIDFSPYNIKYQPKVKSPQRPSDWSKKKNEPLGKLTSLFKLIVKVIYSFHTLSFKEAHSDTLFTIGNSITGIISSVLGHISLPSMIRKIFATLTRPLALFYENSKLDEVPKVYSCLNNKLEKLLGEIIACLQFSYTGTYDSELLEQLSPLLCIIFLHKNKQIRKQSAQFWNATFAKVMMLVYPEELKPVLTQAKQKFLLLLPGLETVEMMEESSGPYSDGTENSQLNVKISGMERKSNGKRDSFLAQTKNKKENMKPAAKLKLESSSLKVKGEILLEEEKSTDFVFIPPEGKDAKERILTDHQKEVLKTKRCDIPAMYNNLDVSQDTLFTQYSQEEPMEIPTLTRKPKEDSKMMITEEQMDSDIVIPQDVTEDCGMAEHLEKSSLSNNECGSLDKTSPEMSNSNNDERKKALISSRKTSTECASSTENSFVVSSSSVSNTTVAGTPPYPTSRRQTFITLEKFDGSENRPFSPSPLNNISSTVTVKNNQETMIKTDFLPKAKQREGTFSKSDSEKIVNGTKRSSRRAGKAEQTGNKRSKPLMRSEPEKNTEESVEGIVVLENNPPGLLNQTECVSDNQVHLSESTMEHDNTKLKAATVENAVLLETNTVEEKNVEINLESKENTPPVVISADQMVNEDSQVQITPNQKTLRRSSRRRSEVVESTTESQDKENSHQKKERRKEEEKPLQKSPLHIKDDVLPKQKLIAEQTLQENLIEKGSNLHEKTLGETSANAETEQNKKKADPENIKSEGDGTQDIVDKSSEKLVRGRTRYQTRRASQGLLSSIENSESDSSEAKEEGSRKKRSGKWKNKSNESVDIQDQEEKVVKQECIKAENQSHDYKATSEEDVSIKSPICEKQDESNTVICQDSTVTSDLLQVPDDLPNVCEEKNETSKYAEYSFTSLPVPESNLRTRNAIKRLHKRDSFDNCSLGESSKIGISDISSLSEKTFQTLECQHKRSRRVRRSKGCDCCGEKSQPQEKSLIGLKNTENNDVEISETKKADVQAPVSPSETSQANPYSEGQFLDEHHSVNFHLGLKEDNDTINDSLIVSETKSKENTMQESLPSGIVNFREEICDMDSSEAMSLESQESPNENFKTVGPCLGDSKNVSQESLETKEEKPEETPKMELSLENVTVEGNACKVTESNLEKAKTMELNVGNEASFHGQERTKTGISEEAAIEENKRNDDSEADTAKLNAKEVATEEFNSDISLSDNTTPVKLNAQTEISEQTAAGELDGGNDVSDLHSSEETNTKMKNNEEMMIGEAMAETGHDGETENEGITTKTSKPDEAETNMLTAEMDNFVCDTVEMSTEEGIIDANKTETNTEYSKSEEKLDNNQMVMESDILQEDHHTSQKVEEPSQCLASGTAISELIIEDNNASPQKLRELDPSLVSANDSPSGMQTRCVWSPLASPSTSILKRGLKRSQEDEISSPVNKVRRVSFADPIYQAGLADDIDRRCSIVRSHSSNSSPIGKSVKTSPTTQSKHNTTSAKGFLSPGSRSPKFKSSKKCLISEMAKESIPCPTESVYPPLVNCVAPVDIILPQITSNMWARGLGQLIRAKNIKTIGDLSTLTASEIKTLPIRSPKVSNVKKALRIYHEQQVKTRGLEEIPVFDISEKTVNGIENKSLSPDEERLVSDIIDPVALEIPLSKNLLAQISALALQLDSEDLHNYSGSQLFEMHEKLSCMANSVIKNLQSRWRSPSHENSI
UniProt P40189, residues 23-918: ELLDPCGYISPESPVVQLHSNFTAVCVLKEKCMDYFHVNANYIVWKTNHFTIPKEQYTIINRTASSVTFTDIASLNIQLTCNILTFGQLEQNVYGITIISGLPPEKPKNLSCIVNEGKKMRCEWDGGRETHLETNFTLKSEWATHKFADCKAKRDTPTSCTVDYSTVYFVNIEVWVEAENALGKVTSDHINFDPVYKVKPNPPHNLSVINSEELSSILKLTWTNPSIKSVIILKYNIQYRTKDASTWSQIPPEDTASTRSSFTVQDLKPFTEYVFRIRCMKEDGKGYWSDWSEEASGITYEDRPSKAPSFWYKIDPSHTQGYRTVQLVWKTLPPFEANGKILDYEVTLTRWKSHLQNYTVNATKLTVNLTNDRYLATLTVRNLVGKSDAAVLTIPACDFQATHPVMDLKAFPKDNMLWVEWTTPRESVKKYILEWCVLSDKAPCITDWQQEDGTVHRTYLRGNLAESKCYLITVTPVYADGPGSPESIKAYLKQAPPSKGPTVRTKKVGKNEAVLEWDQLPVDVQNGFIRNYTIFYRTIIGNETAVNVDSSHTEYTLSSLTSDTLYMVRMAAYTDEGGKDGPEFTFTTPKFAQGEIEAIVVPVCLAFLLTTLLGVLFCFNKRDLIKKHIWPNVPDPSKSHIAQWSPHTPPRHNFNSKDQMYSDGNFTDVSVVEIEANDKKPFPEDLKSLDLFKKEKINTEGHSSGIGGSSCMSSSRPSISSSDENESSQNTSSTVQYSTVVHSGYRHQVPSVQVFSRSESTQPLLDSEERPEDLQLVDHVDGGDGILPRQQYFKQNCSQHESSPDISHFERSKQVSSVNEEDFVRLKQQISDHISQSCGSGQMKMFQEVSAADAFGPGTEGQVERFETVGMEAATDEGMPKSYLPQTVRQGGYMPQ


The molecules below were run against T1, zinc finger Asp-His-His-Cys-type palmitoyltransferase 15 (ZDHHC15) (human (endogenous in U251 GSCs)) (assay: co-IP; U251 GSC lysate (radioimmunoassay buffer with protease inhibitors, 500 ug total protein) immunoprecipitated with agarose fixed anti-ZDHHC15 antibody (1 ug) at 4 °C; immunoblot with anti-GP130, anti-LRP12 and anti-RIF1).

binding	Molecule
no binding	Rap1 interacting factor 1 (RIF1) (from UniProt Q5UIP0 1-2472)
binds	glycoprotein 130 (GP130) (from UniProt P40189 23-918) (receptor)
no binding	low-density lipoprotein receptor-related protein 12 (LRP12) (protein, UniProt Q9Y561 33-859) EHSENVHISGVSTACGETPEQIRAPSGIITSPGWPSEYPAKINCSWFIRANPGEIITISFQDFDIQGSRRCNLDWLTIETYKNIESYRACGSTIPPPYISSQDHIWIRFHSDDNISRKGFRLAYFSGKSEEPNCACDQFRCGNGKCIPEAWKCNNMDECGDSSDEEICAKEANPPTAAAFQPCAYNQFQCLSRFTKVYTCLPESLKCDGNIDCLDLGDEIDCDVPTCGQWLKYFYGTFNSPNYPDFYPPGSNCTWLIDTGDHRKVILRFTDFKLDGTGYGDYVKIYDGLEENPHKLLRVLTAFDSHAPLTVVSSSGQIRVHFCADKVNAARGFNATYQVDGFCLPWEIPCGGNWGCYTEQQRCDGYWHCPNGRDETNCTMCQKEEFPCSRNGVCYPRSDRCNYQNHCPNGSDEKNCFFCQPGNFHCKNNRCVFESWVCDSQDDCGDGSDEENCPVIVPTRVITAAVIGSLICGLLLVIALGCTCKLYSLRMFERRSFETQLSRVEAELLRREAPPSYGQLIAQGLIPPVEDFPVCSPNQASVLENLRLAVRSQLGFTSVRLPMAGRSSNIWNRIFNFARSRHSGSLALVSADGDEVVPSQSTSREPERNHTHRSLFSVESDDTDTENERRDMAGASGGVAAPLPQKVPPTTAVEATVGACASSSTQSTRGGHADNGRDVTSVEPPSVSPARHQLTSALSRMTQGLRWVRFTLGRSSSLSQNQSPLRQLDNGVSGREDDDDVEMLIPISDGSSDFDVNDCSRPLLDLASDQGQGLRQPYNATNPGVRPSNRDGPCERCGIVHTAQIPDTCLEVTLKNETSDDEALLLC

From publication PMC7863430
